Experimental data as given in PubChem BioAssay AID493014 (National Center for Advancing Translational Sciences (NCATS), 2011).
The list shows a part of the results. These are further read-outs of the screen, such as a control signal, another cell line or another target. No call is given for them. Compounds called inactive in the main read-out are mostly missing here. Words in brackets tell the shape of the fitted curve; partial curves, single points and poor fits give uncertain potencies.

Experiment: qHTS Assay to Find Inhibitors of Chronic Active B-Cell Receptor Signaling
Settings: ABC-DLBCL IkBa-CBG/CBR reporter, luminescence ratio (green luciferase fused to IkBa over red control in TMD8 lymphoma cells), 4 h
Procedure, shortened: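 TMD8 human ABC-DLBCL cells with doxycycline-inducible IκBα–green luciferase fusion and unfused red luciferase, in 0.5% FBS medium; compounds up to 46 uM, 4 h at 37C. Green/red luminescence ratio, filter-overlap corrected, fitted to concentration-response curves.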

[1] = measured here: CBR red luminescence, cell number
[2] = measured here: IkBa-CBG green luminescence

SMILES	AC50 [1]	AC50 [2]
COc1ccc(NC(=O)C2CCN(C(=O)c3ccc(OC)cc3)CC2)cc1	0.651 µM [falling, full curve]	–
CCOC(=O)c1c(N)n[nH]c1-c1ccccc1	32.6 µM [falling, single point]	–
C/C(=N\Nc1nc(Cl)c(Cl)cc1Cl)c1ccc(S(=O)(=O)NCc2ccco2)cc1	29.1 µM [falling, single point]	–
CCc1cc(C(=O)c2ccc(C)cc2)c(NC(=O)CCl)s1	23.1 µM [falling, single point]	–
O=C(CCc1ccccc1)NNC(=O)c1cc(Cl)ccc1O	20 µM [falling, single point]	–
O=C(CCN1C(=O)c2ccccc2C1=O)NC(=S)Nc1ccccc1	2.91 µM [falling, partial curve, poor fit]	–
COc1cccc(NC(=O)Nc2ccccc2SC)c1	15.8 µM [falling, partial curve, poor fit]	–
C=CCC[C@H](Cc1ccc(F)cc1)C(=O)OC[C@@H](NC(=O)[C@@H](CC=C)CC(=O)N(CCO)Cc1ccccc1)C(C)(C)C	23.1 µM [falling, partial curve, poor fit]	–
CC(=NC1CC1)c1c(-c2ccccc2)[nH]n(-c2nc3ccccc3s2)c1=O	2.06 µM [rising, full curve]	–
CCC1CCc2c(sc(NC(C)=O)c2C#N)C1 (centres undefined)	8.2 µM [rising, partial curve]	–
Cc1cccc(C)c1NC(=O)c1ccc2c(c1)CCN2S(C)(=O)=O	0.708 µM [rising, full curve, poor fit]	–
O=C(CSc1nnc(CNc2ccc(Cl)cc2)n1Cc1ccccc1)NCc1ccco1	35.5 µM [falling, partial curve, poor fit]	–
CCCCOc1ccc(-c2cnc3ccccc3n2)cc1	3.26 µM [rising, full curve]	–
COC(=O)c1ccc(NC(=O)C[n+]2ccccc2C)cc1	6.31 µM [falling, partial curve]	–
O=C(COC(=O)c1c(Cl)ccc(Cl)c1Cl)NC(=O)NCc1ccccc1	0.82 µM [rising, full curve, poor fit]	–
O=C(Nc1ccc2nc(-c3cccs3)c(-c3cccs3)nc2c1)N1CCOCC1	0.411 µM [rising, full curve]	–
CC[C@@]12C(=O)N(c3cccc(F)c3)C(=O)N1[C@H](c1cccc(C)c1)[C@@H]1C(=O)N(Cc3ccccc3)C(=O)[C@@H]12	22.4 µM [falling, single point]	–
N#Cc1nc(COc2ccc(Cl)cc2Cl)oc1N1CCN(c2ccccc2)CC1	0.58 µM [rising, full curve, poor fit]	–
CCCC(=O)Nc1ccccc1NC(=O)c1cc(OC)c(OC)c(OC)c1	25.9 µM [falling, single point]	–
COc1cc(OC)c(NC(=O)c2ccoc2C)cc1Cl	10.3 µM [rising, partial curve, poor fit]	–
COc1cc2nc(CN3CCN(S(=O)(=O)c4ccc(C)c(C)c4)CC3)[nH]c(=O)c2cc1OC	17.8 µM [rising, single point]	–

SMILES	AC50 [1]	AC50 [2]
CCCC(=O)N(C1CC(C)C(C#N)(C#N)C1(C#N)C#N)N(C)C (centres undefined)	14.1 µM [falling, partial curve, poor fit]	14.1 µM [rising, partial curve, poor fit]
c1ccc(-c2cc3c(N4CCOCC4)ncnc3s2)cc1	1.58 µM [rising, partial curve, poor fit]	–
N#CC1=C(N)OC2=C(CCc3ccccc32)C1c1ccccc1 (centres undefined)	2.59 µM [rising, full curve]	2.59 µM [falling, full curve]
Cc1ccccc1Cn1c(CN2CCC(C(=O)NCc3cccnc3)CC2)cc2ccccc21	10 µM [falling, partial curve, poor fit]	–
Oc1ccc(-c2nnc(-c3ccccc3)c(-c3ccccc3)n2)cc1	4.11 µM [rising, single point]	–
CN(C)/N=C/c1ccc(OS(=O)(=O)c2ccccc2)cc1	1 µM [rising, full curve]	–
O=C(O)C1CC(=O)N(CCc2c[nH]c3ccccc23)C1 (centres undefined)	35.5 µM [rising, single point]	–
COc1ccc(Cl)cc1NC(=S)NCCc1c[nH]c2ccccc12	10 µM [falling, partial curve]	–
O=C(Nc1ccc(O)cc1)c1ccccc1OCc1ccccc1	14.1 µM [falling, partial curve]	–
COc1ccccc1-n1c(CNC(=O)c2ccco2)nnc1SCC(=O)Nc1cc(C)ccc1C	8.91 µM [falling, partial curve]	–
CC1=NN(/C(=N\c2nnc(C)s2)Nc2ccccc2)[C@H](c2cccc3ccccc23)S1	0.0651 µM [falling, full curve, poor fit]	–
O=C(Cc1ccsc1)N1CCc2c([nH]c3ccccc23)C1c1ccccn1 (centres undefined)	15.8 µM [falling, partial curve, poor fit]	–
O=C(NCCCSc1ccccc1)c1cc(Cl)ccc1O	14.1 µM [falling, partial curve]	–
COc1ccc(/C=C2\SC(=S)N(CCCC(=O)Nc3ccccn3)C2=O)cc1OC	4.11 µM [falling, partial curve]	–
C/C=C/C=C/C(=O)N1CC[C@]23c4ccccc4N[C@H]4N(C)c5cccc6c5[C@]42CCN([C@H]6C2OC2(C)C)[C@H]13 (some centres undefined)	7.08 µM [falling, full curve]	–
COc1ccc(N2C3=[N+](CC2(C)O)c2ccccc2CC3)cc1 (centres undefined)	25.1 µM [rising, single point]	–
CC(C)(C)c1ccc(OCC(=O)N2CCCCCC2)c(Br)c1	25.1 µM [falling, partial curve, poor fit]	–
Cc1cc(C)n(-c2nc3sc4c(c3c(=O)[nH]2)CCCC4)n1	18.4 µM [falling, single point]	–
O=C(Cn1ncc(Cl)c(Cl)c1=O)N1CCOCC1	35.5 µM [falling, single point]	–
Cn1cnnc1Sc1cc(N2CCN(S(=O)(=O)c3ccc4ccccc4c3)CC2)ccc1[N+](=O)[O-]	29.1 µM [rising, single point]	–
O=C(COC(=O)c1ccc(S(=O)(=O)N2CCCCCC2)cc1)NCc1ccc(Cl)cc1	0.0082 µM [rising, full curve]	–

Retrieved one by one from above, three records:
SMILES	AC50 [1]	AC50 [2]
CC1=NN(/C(=N\c2nnc(C)s2)Nc2ccccc2)[C@H](c2cccc3ccccc23)S1	0.0651 µM [falling, full curve, poor fit]	–
COc1ccc(N2C3=[N+](CC2(C)O)c2ccccc2CC3)cc1 (centres undefined)	25.1 µM [rising, single point]	–
COc1ccc(Cl)cc1NC(=S)NCCc1c[nH]c2ccccc12	10 µM [falling, partial curve]	–

Remaining list, next part:

SMILES	AC50 [1]	AC50 [2]
N#C/C(=N\Nc1cccc(C(F)(F)F)c1)C(=O)c1csc(-c2cccnc2)n1	35.5 µM [falling, single point]	–
COc1ccc(-c2csc(N(CCCN(C)C)C(=O)c3ccc(C)cc3)n2)cc1	35.5 µM [falling, single point]	–
CC(=O)O[C@H]1CC[C@H]2[C@@H]3CCc4cc(O)ccc4[C@H]3CC[C@]12C	1.64 µM [rising, full curve]	–
O=C(O)c1ccc(N/N=C/c2ccc(OC(=O)c3ccccc3Cl)cc2)cc1	0.082 µM [falling, full curve]	–
O=C(/C=C/c1ccco1)Nc1ccccc1N1CCCCC1	3.98 µM [rising, full curve, poor fit]	–
O=c1c2[nH]cnc2n(-c2ccccc2)c(=O)n1Cc1ccccc1	22.4 µM [rising, partial curve]	–
CC1(C)CC(=O)C2=C(C1)NC(=O)CC2C(=O)NCc1ccc(F)cc1 (centres undefined)	0.58 µM [falling, partial curve, poor fit]	–
COc1ccc(-c2nc3c(c(SCC(=O)Nc4cccc(O)c4)n2)Cc2c(CO)cnc(C)c2O3)cc1	2.24 µM [rising, full curve, poor fit]	–
CC(Sc1nnc(C(F)(F)F)n1C)C(=O)Nc1ccc(S(N)(=O)=O)cc1 (centres undefined)	11.2 µM [rising, partial curve, poor fit]	–
O=C(Nc1cc(Cl)ccc1Cl)c1cc(S(=O)(=O)NCCc2ccccc2)ccc1F	20 µM [falling, partial curve, poor fit]	–
Cc1cc(-c2ccccc2)n(-c2cc(N/N=C/c3ccccc3O)ncn2)n1	–	6.51 µM [falling, full curve]
CC1=C(CO)C(=O)OC([C@@H](C)C2CC[C@H]3C4C[C@H]5O[C@]56[C@@H](O)C=CC(=O)[C@]6(C)C4CC[C@]23C)C1 (some centres undefined)	2.24 µM [falling, partial curve, poor fit]	–
Cc1ccc(C(C)NC(=O)c2c(C)noc2C)cc1C (centres undefined)	0.92 µM [rising, full curve, poor fit]	–
O=C(NCc1ccc2c(c1)OCO2)c1ccc2c(c1)N(Cc1c(F)cccc1Cl)C(=O)CS2	0.0164 µM [rising, full curve, poor fit]	–
COc1cc(C2C(C#N)=C(N)Oc3n[nH]c(-c4cccnc4)c32)cc(Br)c1O (centres undefined)	11.2 µM [falling, partial curve, poor fit]	–
CC(C)(C)C(=O)N1CCN(c2nc3ccccc3o2)CC1	35.5 µM [rising, single point]	–
Cc1[nH]c2ccc(F)cc2c1CCN(Cc1cccnc1)C(=S)NC(C)(C)C	14.1 µM [falling, partial curve, poor fit]	–
O=C(CSC1=NCCS1)Nc1nc(-c2ccccc2)cs1	28.2 µM [falling, single point]	–
O=C1CCc2ccccc2N1	7.08 µM [rising, partial curve]	–
CCC(=O)OCc1c(C(F)(F)F)nn(C)c1Sc1ccc(F)cc1	28.2 µM [rising, partial curve, poor fit]	–
